Source: article PMC10604416
These are yes or no findings as the source states them, for the method shown. In cells and extracts the contact can be indirect. Some entries that bind do so weakly or less than the wild type.

Biological target: T1, NRP1-hFc (UniProt O14786)
T1 sequence: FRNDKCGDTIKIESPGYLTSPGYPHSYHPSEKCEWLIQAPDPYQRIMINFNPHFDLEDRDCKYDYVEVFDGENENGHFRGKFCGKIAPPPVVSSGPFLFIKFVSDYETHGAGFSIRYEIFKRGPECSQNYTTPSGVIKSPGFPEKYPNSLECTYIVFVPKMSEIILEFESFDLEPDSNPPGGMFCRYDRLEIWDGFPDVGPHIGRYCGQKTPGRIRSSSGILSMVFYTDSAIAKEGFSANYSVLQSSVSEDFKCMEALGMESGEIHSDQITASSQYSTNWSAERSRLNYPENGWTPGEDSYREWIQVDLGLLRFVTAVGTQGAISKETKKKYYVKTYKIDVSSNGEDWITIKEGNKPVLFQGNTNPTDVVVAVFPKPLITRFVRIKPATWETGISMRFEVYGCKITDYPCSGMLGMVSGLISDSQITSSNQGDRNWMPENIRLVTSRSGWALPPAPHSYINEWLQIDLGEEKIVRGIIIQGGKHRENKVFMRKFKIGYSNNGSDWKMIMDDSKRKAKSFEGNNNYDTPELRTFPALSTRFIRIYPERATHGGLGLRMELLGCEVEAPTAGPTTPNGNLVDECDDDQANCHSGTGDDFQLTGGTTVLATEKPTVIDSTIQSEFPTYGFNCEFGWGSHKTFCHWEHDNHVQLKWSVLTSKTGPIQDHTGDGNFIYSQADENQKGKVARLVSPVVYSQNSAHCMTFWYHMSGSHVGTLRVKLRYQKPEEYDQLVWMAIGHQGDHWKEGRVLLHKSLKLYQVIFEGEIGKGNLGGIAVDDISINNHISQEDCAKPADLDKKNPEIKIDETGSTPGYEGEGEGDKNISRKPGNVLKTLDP
Experiment: pull-down; only the target purified

For “EGFR (endogenous, HepG2) (from UniProt P00533 25-1210) (receptor)”, the binding was “binds”.
